Assay results from patent US8431525B2, “Coelenteramide analogs” (JNC Corporation, priority 2009, dated 2013).
Some results were stated once for a whole list of compounds, not compound by compound.

Assay: Fluorescence spectrum and fluorescence quantum yield of CTMD analogs at 750 nM (Example 1)
Assay type: physicochemical
Settings: for fluorescence quantum yield in an organic solvent or in an aqueous solution: methanol or phosphate buffer; for fluorescence quantum yield both in an organic solvent and in an aqueous solution: methanol and phosphate buffer
Procedure: The fluorescence quantum yield of each CTMD analog synthesized was determined by the following procedure. The fluorescence spectrum was measured at 25° C. using a spectrofluorometer FP-6500 of JASCO (JASCO Corp., Tokyo). Specifically, the CTMD analog was dissolved in methanol (MeOH) or in 67 mM phosphate buffer (PB) (pH 7.4) at a final concentration of 750 nM using a quartz cell (light path length of 10 mm). Measurement was performed 3 times at the excited wavelength of 330 nm, emission/excitation band width of 3 nm, response of 0.5 second and scanning rate of 100 nm/min. The average was taken as the fluorescence spectrum of the compound. The fluorescence quantum yield was determined after the spectrum was corrected.
Quinine sulfate was used as a standard for determining the fluorescence quantum yield. After quinine sulfate (Wako Pure Chemical Industries) was dissolved in 0.1N sulfuric acid aqueous solution, measurement was performed at the excitation light of 366 nm under the conditions for fluorescence measurements described above. The relative fluorescence quantum yield (fluorescence intensity) of the compound was calculated relative to the quantum yield of quinine sulfate as being 0.55.

Row | SMILES | fluorescence quantum yield in an organic solvent or in an aqueous solution | fluorescence quantum yield both in an organic solvent and in an aqueous solution
1 | CC(=O)Oc1ccc(-c2cnc(N(S(C)(=O)=O)S(C)(=O)=O)c(Cc3ccccc3)n2)cc1 [c-39, 5-(4-Acetoxyphenyl)-3-benzyl-2-bis(methanesulfonyl)aminopyrazine] | ≥ 0.090 | 
2 | CC(=O)Oc1ccc(-c2cnc(NS(=O)(=O)Cc3ccccc3)c(Cc3ccccc3)n2)cc1 [c-32, 5-(4-Acetoxyphenyl)-3-benzyl-2-(benzylsulfonylamino)pyrazine] |  | ≥ 0.100
3 | COc1ccc(-c2cnc(NS(=O)(=O)Cc3ccccc3)c(Cc3ccccc3)n2)cc1 [c-18, 3-Benzyl-2-benzylsulfonylamino-5-(4-methoxyphenyl)pyrazine] |  | ≥ 0.100
4 | O=S(=O)(Cc1ccccc1)Nc1ncc(-c2ccccc2)nc1Cc1ccccc1 [c-37, 3-Benzyl-2-benzylsulfonylamino-5-phenylpyrazine] |  | ≥ 0.100
5 | CS(=O)(=O)Nc1ncc(-c2ccc(O)cc2)nc1Cc1ccccc1 [c-34, 3-Benzyl-5-(4-hydroxyphenyl)-2-(methanesulfonylamino)pyrazine] | ≥ 0.090 | 
